# According to doi:10.1101/2021.08.10.455789:
# T1: HMG-3::3xHA (C. elegans) (UniProt O01683)
# T1 sequence: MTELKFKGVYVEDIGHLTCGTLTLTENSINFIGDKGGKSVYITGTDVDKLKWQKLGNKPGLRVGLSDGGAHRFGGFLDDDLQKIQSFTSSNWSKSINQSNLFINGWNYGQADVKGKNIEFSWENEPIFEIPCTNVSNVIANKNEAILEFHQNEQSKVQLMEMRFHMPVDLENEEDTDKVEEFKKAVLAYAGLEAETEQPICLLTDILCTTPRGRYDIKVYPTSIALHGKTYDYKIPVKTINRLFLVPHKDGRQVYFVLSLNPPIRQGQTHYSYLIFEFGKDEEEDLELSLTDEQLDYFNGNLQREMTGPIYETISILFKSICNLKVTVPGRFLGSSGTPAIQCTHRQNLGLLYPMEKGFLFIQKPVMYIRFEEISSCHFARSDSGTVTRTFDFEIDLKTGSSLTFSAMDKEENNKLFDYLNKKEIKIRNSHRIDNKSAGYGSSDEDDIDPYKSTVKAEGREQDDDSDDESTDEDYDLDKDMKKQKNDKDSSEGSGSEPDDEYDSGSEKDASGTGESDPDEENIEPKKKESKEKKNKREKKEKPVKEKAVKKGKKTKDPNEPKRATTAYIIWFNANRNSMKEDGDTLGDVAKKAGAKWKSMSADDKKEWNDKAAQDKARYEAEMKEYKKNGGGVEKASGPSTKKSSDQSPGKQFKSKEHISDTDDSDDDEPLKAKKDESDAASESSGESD
# T2: HMG-4::3xHA (C. elegans) (UniProt P41848)
# T2 sequence: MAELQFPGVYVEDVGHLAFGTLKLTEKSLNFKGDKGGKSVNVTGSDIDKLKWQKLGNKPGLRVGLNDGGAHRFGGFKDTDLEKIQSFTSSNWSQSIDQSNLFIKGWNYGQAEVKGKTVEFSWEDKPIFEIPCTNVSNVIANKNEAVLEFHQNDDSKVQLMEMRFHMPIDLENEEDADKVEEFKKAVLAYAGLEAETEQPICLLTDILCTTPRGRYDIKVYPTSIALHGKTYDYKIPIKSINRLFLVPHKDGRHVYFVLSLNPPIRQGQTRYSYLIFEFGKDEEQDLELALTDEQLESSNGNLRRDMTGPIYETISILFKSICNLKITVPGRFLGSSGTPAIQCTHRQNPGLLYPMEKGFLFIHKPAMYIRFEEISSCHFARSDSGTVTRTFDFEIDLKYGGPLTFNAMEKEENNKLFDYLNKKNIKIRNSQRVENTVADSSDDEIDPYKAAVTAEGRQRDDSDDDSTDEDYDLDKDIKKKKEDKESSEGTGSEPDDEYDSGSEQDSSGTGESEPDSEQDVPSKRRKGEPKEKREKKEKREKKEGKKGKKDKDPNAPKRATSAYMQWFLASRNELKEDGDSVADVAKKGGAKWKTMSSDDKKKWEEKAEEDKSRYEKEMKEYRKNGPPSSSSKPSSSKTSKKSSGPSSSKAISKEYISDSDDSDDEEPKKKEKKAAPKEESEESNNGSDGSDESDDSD
# B1: SPT-16 (protein, UniProt Q9N5R9 1-1030)
# chain: MSGKRAVLNKDLFFQRAERLYEHWEKGADGLDSIKSLAFVYGETDNPYTKTSALFTWLFGHEIADTVLLLLKDHIYILGSNRKVEFFGSVTGDNQSSGKVPTVSTLLRDKTDKDAGNFEKLIDHIKSAGGDVGNFVKEKFSSEFVSSWNKALEEGGVNKNDVTLAFTHLFAVKDDKEMDLIRKSAQATTASWTAARARYVEIIDQEKRVRHSVLSNEFAAFMKDSKVQQALAKYEADTCYDPIVMSGGNYSFKWNHESSESHLHSQFGTIITSFGARLSEYCTNLTRTMLIFPSSELETAYEAILAAELAVIAALKPGAKLSDVYKIGIDTLTEKSPKLAETLNKKELGFATGIEFRESRLAISAKCDEVVKAGMVFIVYIGVDSIPNKNKGEKGKPAAIAISDTILVKEEGDNEILTEKAKSRLKSNVIKFKEEQENREAEKDNDQKKMLGRGQRSVVLTDQTRNKTTNEELRKERQKELGVQLNELAKARLSKQGGGTDEKKSKKSNVSYKTEERFPQDADVQKMLIFVDRKYDSVVVPIFGIPVPFHISMIKNCSQSVEGDFTYLRINFATPGSQVGKDSGQFPHPLAHYMKELTFRASNIKDHHSDSTAPSHNLSTAFRLIKEMQKRFKTEEAEEREKEGAVKQDKLILSQNKLNPKLKDLLIRPNIIQKRITGSLEAHTNGFRYTSLRGDRIDVLYNNIKHAFFQPCDNEMIILLHFHLKNPVLWGKKKYKDVQFYTEVGEITTDLGKYHHMQDRDDMQSEQQEREMRRRLNAAFNSFCEKVSRLTNDQFEFDSPFAGLGFFGVPYRSATTLKPTASCLVNLTEWPTFIVTLSEVELVHFERVSLQLKNFDMVFIFKDYKIKPQMVAQIPMSSIDKIKEWLHTCDIWYSEGIQSLNWAKVMKTITDDLEAFFEEGGWSFLNVESDNEEAMDDSDDSDAYDPEEEDASAGSGSESDEDESEGEETESDDDDEGSLDSDESEGKDWSDLEEEAANADKRREVEEPSRDRDRKRPHSSKSGPSHKRRK
# Legend:
# HMG-3::3xHA (C. elegans) = molecular target: T1, HMG-3::3xHA (C. elegans); assay: affinity purification with mass spectrometry
# HMG-4::3xHA (C. elegans) = molecular target: T2, HMG-4::3xHA (C. elegans); assay: affinity purification with mass spectrometry
binder,measurement,setting,value
B1,binding,HMG-3::3xHA (C. elegans),binds
same,binding,HMG-4::3xHA (C. elegans),binds

# Results are given in words; binding and its absence hold for the method and conditions named. In cells and extracts the contact can be indirect. Here binding means that the protein was enriched with, or labelled near, the bait; the list need not be complete.
